From article doi:10.1101/2024.06.26.600760
No constants are given. Whether binding was seen depends on the method and setting. Binding seen in cells or lysates may run through a third protein. Binding calls can cover weak binding; strength is not graded here.

The chains behind the UniProt entries cited, without tags or fusion partners. Where a name states a change or a piece, a line headed by the entry shows the natural chain unless it says otherwise.
UniProt Q13315: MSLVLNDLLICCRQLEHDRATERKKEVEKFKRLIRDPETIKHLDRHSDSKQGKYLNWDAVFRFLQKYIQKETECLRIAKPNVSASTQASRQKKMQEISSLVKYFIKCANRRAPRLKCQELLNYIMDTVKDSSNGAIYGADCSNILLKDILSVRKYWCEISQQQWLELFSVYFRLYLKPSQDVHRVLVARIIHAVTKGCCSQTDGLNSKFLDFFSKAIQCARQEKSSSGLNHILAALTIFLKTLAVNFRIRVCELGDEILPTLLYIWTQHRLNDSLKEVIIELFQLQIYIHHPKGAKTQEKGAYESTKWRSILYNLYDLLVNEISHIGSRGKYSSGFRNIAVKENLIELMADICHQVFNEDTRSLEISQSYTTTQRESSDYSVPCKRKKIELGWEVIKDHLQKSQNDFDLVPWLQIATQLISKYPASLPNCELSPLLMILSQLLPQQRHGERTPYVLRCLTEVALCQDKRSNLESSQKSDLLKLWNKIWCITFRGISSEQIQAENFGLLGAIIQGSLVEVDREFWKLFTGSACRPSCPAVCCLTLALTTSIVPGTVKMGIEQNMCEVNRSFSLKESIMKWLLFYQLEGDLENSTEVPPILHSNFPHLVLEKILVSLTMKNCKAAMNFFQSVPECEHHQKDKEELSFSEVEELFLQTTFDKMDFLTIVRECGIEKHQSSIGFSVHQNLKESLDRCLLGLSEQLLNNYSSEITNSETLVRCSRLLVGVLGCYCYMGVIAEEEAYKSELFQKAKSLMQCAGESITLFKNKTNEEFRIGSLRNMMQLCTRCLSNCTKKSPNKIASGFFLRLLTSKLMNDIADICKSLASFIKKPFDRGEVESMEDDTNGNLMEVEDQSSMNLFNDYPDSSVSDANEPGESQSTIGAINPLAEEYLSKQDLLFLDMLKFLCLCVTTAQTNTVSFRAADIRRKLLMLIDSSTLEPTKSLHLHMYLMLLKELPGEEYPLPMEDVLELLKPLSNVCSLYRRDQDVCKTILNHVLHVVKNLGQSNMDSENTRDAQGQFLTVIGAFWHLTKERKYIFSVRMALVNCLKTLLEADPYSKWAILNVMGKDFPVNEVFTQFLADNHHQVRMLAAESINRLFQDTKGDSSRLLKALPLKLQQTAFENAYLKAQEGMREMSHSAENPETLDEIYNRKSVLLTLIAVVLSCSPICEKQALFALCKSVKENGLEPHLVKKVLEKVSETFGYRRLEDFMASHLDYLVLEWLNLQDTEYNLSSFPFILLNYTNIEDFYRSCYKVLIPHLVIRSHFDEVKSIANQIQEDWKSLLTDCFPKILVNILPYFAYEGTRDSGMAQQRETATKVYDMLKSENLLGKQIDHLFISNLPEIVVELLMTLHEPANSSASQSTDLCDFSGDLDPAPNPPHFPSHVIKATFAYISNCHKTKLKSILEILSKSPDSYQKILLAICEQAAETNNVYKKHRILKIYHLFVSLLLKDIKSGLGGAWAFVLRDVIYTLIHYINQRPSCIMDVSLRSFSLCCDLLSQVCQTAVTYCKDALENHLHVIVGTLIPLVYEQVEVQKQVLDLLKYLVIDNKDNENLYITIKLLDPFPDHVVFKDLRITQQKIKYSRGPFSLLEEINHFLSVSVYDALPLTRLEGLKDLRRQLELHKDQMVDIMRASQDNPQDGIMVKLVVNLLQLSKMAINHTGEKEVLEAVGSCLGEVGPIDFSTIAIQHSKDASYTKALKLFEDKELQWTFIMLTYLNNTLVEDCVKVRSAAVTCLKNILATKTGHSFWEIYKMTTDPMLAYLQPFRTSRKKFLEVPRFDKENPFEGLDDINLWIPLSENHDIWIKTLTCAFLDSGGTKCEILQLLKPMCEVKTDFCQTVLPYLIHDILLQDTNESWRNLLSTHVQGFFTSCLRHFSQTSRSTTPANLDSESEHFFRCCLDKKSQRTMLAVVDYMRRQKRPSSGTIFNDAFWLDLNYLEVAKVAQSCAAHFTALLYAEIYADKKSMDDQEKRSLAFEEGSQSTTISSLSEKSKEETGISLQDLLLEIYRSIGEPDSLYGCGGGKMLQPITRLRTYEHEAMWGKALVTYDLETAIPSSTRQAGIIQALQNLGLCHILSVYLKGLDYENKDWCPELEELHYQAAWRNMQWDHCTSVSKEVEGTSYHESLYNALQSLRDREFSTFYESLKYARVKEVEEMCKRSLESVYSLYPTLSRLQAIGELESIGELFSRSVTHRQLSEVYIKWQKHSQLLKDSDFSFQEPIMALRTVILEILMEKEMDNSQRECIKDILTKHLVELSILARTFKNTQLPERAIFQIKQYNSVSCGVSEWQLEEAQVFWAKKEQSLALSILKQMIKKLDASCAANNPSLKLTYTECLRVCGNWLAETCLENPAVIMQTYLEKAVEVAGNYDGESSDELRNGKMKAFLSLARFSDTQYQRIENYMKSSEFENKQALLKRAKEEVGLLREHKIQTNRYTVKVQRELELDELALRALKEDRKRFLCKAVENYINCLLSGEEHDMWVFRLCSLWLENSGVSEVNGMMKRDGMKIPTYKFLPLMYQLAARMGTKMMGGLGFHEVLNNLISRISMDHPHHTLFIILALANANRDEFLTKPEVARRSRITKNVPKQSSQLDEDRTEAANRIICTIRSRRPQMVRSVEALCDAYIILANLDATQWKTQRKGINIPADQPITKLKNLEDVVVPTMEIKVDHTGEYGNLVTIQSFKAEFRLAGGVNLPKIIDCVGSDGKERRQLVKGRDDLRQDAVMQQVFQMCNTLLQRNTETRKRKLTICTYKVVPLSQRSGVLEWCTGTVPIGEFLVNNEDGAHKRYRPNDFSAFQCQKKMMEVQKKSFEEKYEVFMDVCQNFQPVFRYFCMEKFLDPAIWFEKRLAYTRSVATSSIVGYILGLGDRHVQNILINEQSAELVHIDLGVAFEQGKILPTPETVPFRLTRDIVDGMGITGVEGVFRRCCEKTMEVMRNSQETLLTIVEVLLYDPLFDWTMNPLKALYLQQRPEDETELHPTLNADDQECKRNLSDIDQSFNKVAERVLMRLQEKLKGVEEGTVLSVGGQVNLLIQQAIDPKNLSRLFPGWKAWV
UniProt Q9UBP0: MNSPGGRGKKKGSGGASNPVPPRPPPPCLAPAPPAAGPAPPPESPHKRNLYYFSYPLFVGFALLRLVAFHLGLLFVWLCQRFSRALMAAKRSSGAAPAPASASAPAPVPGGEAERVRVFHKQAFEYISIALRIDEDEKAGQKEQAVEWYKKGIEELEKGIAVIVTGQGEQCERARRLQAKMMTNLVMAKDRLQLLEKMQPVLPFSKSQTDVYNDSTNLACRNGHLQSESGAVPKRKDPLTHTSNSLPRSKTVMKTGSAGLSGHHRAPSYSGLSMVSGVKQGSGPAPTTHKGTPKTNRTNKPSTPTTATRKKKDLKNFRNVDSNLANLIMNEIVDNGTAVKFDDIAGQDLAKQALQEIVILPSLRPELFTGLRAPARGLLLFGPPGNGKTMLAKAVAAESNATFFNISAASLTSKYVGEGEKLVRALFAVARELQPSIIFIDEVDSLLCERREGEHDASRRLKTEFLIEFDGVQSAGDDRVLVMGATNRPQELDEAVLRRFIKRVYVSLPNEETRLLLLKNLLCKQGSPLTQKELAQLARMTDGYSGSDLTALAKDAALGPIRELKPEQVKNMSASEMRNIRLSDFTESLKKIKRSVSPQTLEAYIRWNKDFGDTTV

Experiments:
[1] = target: Ataxia Telangiectasia Mutated (ATM) (human (endogenous in SH-SY5Y)) (UniProt Q13315); assay: co-IP
[2] = target: T1, collapsin response mediator protein 5 (CRMP5) (human (endogenous in SH-SY5Y)) (UniProt Q9BPU6); assay: co-IP
T1 sequence: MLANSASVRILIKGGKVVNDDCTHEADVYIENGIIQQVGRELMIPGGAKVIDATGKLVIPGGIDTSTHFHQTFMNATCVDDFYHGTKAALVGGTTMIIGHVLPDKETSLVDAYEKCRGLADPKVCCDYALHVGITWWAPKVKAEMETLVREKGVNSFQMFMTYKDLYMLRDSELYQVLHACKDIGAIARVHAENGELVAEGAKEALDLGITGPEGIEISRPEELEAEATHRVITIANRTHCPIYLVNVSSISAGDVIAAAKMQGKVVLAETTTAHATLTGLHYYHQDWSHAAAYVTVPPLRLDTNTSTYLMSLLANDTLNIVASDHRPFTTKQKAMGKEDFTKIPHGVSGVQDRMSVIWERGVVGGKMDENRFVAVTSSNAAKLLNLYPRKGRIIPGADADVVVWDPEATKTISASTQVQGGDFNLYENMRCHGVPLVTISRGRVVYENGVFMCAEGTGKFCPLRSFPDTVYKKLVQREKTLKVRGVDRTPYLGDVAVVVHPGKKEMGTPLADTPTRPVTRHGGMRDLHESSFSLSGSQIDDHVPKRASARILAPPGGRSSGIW

- binding [2]: binds
Substance: Spastin (SPAST) (from UniProt Q9UBP0)
- binding [1]: binds
